For some assays here: The comparison behind a weaker result is the experiment's own reference, which may not be listed here. Construct, isoform or probe ends are uncertain for at least one entry. For some assays here: Negatives hold for the conditions tested. For some assays here: At least one verdict rests on a figure or table, not on a statement of the authors. For some assays here: The direction of at least one scale is not stated here.
How the values were obtained:
Test in all cases: EMSA
[1] = system: Foxp1-ΔN (mouse); settings: 12 mM HEPES pH 7.5, 100 mM NaCl, 1 mM DTT, 1 mM EDTA, 12% glycerol, 20 µg/ml poly(dI)-poly(dC), room temperature 20 min, protein translated in vitro, label: 32P 5' end
[2] = molecular target: FOXP3-ΔN (human) (UniProt Q9BZS1); settings: 12 mM HEPES pH 7.5, 100 mM NaCl, 1 mM DTT, 1 mM EDTA, 12% glycerol, 20 µg/ml poly(dI)-poly(dC), room temperature 20 min, protein translated in vitro, residues 182-431, label: 32P 5' end
[3] = molecular target: Foxp1A full length (mouse) (UniProt P58462); settings: 12 mM HEPES pH 7.5, 100 mM NaCl, 1 mM DTT, 1 mM EDTA, 12% glycerol, 20 µg/ml poly(dI)-poly(dC), room temperature 20 min, protein translated in vitro, protein details: HA, label: 32P 5' end
[4] = molecular target: FOXP3 ΔN121 (human) (UniProt Q9BZS1); settings: legend: A'(A1-A1), text: spacing-optimized A'; 12 mM HEPES pH 7.5, 100 mM NaCl, 1 mM DTT, 1 mM EDTA, 12% glycerol, 20 µg/ml poly(dI)-poly(dC), room temperature 20 min; protein translated in vitro; residues 122-431; label: 32P 5' end
[5] = molecular target: FOXP3-ΔN C204S (human) (UniProt Q9BZS1); settings: 12 mM HEPES pH 7.5, 100 mM NaCl, 1 mM DTT, 1 mM EDTA, 12% glycerol, 20 µg/ml poly(dI)-poly(dC), room temperature 20 min; protein translated in vitro; residues 182-431; label: 32P 5' end
[6] = molecular target: FOXP3-ΔN ΔFKH (human) (UniProt Q9BZS1); settings: 12 mM HEPES pH 7.5, 100 mM NaCl, 1 mM DTT, 1 mM EDTA, 12% glycerol, 20 µg/ml poly(dI)-poly(dC), room temperature 20 min; protein translated in vitro; label: 32P 5' end

Chains of the proteins cited; added tags and fusions are not shown. Residues count along the entry.
UniProt Q9BZS1, 182-431, stated change not applied: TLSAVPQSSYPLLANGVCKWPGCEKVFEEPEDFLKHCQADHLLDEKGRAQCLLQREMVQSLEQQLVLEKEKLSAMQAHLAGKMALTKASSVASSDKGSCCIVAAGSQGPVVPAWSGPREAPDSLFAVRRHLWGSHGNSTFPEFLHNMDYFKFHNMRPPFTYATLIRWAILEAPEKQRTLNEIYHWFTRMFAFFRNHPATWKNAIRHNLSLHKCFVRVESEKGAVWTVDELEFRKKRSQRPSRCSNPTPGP
UniProt Q9BZS1, 122-431, stated change not applied: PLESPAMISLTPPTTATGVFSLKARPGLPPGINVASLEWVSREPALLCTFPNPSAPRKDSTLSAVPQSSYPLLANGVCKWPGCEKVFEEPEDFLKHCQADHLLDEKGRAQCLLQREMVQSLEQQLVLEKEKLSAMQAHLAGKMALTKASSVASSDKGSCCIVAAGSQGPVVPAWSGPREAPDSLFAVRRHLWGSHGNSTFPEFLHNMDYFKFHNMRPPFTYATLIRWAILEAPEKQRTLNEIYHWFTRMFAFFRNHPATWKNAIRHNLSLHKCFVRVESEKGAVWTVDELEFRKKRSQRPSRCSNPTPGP
UniProt Q9BZS1, 182-431 C204S: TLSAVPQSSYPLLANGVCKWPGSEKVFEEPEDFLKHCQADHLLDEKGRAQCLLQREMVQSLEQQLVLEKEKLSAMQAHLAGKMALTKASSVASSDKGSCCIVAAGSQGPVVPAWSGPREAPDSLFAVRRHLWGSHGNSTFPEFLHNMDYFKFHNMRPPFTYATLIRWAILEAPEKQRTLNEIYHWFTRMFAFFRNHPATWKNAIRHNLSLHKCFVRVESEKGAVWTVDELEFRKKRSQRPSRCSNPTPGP
UniProt Q9BZS1, 182-336, stated change not applied: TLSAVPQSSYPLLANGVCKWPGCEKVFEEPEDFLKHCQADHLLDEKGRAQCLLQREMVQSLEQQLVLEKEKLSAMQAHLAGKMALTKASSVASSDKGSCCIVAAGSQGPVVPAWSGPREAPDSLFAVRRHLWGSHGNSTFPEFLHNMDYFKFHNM
UniProt P58462, whole entry: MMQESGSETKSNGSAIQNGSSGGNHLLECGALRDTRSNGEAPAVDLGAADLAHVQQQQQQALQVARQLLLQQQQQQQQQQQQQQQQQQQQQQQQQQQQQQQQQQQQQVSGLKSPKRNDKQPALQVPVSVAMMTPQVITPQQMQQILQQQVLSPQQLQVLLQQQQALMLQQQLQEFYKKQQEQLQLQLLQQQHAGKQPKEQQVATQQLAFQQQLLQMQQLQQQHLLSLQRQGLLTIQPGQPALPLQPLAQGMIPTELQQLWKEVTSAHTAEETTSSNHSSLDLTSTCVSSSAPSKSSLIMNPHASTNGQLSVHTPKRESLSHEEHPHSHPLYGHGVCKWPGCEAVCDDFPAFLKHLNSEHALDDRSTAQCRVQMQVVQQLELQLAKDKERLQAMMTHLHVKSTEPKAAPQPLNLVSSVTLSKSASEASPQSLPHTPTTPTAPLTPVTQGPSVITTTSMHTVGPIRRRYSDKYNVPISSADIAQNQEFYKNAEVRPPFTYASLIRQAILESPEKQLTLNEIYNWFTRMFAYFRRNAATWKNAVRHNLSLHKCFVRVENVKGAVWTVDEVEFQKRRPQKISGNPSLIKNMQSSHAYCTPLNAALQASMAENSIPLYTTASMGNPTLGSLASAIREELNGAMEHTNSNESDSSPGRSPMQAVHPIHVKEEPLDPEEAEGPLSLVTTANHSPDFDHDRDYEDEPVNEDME

CAAGACAAACAAGACAACACAAACAA (double strand) [A' (AC)]
binding result [1]: binds more weakly
binding result ([2]; below AT): binds more weakly
binding result [3]: binds more weakly

CAAGACAAATAAGACAACACAAATAA (double strand) [A'' (A2-A2)]
binding result [1]: binds more weakly
binding result [3]: binds more weakly

CAAGATAAACAAGACAACATAAACAA (double strand) [A' (AT)]
binding result [1]: binds more weakly
binding result [3]: binds more weakly

CAAGGCAAACAAGACAACGCAAACAA (double strand) [A' (GC)]
binding result ([1]; very weak): binds more weakly
binding result ([3]; very weak): binds more weakly

CAAGGTAAACAAGACAACACAAATAA (double strand) [A (A1-A2)]
binding result ([1]; more than full-length Foxp1): binds
binding result ([2]; weaker than Foxp1, less than half of A'): binds more weakly

CAAGGTAAACAAGACAACACGATTGTAAACAAGTC (double strand) [A' (35 bp), 20-bp spacing]
binding result ([1]; somewhat preferred over 14-bp spacing): binds

CAAGGTAAACAAGACAACGTAAACAA (double strand) [A' (A1-A1)]
binding result ([1]; enhanced versus A): binds
binding result [4]: binds more weakly
binding result [3]: binds

CAAGGTAAACAAGACAACGTAAACAAGTC (double strand) [A' (29 bp), 14-bp spacing]
binding result [1]: binds
binding signal (fold (reference)) [2]: 1

CAAGGTAAACAAGAGTAAACAAGTC (double strand) [A' (25 bp), 10-bp spacing]
binding result [5]: binds
binding result [6]: no binding
binding result [1]: binds more weakly
